In the supplement of paper PMC12823440, “Inhibitors supercharge kinase turnover through native proteolytic circuits” (Nature, 2025):
Counter-ions that a name gives are not always drawn. Some of the results follow. Hit calls seldom repeat between salt and free forms of one compound.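 In K562 cells expressing nanoluciferase-fused kinases, luminescence was recorded at 4 h intervals between 2 and 18 h, normalized as percent of control with DMSO at 100% and a positive control at 0%. A significant (2 sigma) signal drop marks a time point as decreased. The authors' rule for a hit is not shown and takes in more than the number of time points.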

Protein sequences, listed by entry. Tags and fused reporters are not part of them. Lines headed by an entry give the natural chain unless they say otherwise; changes in a name come on top.
UniProt Q15208: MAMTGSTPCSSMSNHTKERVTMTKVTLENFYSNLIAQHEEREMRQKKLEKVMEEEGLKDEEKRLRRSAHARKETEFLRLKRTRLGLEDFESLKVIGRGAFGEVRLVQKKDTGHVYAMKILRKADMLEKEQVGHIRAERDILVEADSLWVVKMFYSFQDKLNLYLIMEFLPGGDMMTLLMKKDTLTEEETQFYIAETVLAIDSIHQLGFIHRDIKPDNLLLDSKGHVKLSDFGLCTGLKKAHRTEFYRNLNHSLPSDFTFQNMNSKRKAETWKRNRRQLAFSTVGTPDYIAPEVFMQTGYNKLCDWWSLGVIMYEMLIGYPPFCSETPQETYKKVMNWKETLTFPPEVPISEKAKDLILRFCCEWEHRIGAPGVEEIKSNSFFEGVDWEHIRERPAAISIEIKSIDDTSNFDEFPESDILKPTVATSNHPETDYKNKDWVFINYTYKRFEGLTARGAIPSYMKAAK
UniProt P42680: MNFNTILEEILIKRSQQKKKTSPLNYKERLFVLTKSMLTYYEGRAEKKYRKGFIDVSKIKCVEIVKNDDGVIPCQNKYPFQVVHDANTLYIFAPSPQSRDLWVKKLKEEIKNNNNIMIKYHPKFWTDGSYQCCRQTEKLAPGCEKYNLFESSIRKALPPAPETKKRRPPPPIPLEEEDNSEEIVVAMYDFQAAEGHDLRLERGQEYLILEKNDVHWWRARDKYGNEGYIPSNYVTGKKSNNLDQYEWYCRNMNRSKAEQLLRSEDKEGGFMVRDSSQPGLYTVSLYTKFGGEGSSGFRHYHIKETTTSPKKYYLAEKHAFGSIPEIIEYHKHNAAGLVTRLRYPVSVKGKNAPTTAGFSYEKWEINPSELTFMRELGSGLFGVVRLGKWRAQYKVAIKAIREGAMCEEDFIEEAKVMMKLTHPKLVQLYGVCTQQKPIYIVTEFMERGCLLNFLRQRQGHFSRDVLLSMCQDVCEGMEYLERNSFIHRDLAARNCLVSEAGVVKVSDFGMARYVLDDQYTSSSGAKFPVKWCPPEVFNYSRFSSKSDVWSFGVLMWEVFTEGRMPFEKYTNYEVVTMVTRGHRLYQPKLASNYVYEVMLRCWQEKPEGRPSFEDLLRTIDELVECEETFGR
UniProt P29597: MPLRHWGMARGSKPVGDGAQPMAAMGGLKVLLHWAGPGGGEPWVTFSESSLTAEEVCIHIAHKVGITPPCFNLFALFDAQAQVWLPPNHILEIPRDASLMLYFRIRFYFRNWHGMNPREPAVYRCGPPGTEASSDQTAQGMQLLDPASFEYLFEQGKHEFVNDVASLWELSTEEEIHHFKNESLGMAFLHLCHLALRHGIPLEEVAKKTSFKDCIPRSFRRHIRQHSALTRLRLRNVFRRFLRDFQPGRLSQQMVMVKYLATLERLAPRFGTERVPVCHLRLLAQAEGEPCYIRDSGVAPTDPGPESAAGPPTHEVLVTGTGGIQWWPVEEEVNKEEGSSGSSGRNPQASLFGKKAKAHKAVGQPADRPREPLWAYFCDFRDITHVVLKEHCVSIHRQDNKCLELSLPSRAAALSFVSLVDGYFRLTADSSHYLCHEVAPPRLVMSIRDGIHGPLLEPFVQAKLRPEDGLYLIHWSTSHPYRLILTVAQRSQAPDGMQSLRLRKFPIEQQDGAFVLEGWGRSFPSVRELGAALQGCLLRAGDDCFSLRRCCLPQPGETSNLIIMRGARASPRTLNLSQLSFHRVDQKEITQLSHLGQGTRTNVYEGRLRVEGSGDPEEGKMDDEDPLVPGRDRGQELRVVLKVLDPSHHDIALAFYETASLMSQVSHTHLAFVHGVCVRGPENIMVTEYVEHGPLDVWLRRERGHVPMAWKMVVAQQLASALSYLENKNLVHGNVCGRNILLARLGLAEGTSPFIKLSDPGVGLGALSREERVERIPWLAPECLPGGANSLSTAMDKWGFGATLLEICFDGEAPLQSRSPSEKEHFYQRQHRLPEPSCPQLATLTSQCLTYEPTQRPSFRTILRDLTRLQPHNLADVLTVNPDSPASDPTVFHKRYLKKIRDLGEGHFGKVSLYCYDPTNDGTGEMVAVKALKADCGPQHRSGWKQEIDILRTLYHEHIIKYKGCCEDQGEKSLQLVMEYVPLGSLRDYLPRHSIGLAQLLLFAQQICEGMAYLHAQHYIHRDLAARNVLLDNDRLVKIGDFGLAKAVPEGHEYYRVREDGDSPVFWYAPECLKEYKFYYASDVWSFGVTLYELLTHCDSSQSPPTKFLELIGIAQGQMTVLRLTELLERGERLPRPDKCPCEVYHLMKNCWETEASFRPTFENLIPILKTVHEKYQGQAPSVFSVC
UniProt Q6PHR2: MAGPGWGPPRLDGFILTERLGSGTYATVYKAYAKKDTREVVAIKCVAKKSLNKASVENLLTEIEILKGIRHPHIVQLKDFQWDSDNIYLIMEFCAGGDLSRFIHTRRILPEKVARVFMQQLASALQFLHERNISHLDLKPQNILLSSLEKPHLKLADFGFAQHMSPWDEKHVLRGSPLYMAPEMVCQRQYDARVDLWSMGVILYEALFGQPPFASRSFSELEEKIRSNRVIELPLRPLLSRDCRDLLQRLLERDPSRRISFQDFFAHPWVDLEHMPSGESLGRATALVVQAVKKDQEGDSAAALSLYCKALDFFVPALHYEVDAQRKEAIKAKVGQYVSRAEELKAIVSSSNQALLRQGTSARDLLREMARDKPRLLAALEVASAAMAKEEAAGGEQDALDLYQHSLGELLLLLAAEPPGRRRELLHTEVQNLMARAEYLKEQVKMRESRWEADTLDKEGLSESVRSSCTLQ
UniProt P07947, whole entry, looked up: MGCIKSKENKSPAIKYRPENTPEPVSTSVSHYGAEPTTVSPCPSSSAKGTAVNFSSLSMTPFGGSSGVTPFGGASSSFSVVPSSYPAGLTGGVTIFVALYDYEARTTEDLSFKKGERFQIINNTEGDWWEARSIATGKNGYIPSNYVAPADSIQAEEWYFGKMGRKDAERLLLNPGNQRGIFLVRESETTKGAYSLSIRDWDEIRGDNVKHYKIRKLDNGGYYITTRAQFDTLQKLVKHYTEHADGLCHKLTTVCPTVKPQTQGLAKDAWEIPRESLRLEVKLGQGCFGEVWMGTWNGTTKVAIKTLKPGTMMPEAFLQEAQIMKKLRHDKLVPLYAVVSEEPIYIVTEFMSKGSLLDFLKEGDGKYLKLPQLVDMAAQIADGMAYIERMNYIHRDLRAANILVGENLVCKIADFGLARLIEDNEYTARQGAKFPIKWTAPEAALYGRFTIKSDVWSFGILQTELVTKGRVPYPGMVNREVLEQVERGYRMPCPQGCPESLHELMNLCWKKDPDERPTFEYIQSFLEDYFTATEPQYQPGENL
UniProt P43403: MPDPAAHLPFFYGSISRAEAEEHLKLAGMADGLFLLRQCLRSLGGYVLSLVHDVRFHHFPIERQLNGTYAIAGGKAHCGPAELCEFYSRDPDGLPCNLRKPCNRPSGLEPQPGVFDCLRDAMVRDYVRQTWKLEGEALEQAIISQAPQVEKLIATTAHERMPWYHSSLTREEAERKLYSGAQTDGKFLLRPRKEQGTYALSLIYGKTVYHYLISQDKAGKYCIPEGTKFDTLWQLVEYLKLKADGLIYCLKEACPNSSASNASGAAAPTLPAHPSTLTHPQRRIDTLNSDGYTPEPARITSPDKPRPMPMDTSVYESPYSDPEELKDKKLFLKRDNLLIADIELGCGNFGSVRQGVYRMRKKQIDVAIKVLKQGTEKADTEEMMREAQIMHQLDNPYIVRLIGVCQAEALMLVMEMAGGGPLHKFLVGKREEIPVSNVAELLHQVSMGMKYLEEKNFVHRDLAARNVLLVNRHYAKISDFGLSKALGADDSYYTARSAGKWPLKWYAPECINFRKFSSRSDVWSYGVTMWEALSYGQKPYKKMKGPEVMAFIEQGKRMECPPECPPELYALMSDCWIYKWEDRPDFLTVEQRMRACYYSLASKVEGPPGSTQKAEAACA
UniProt P00519, whole entry: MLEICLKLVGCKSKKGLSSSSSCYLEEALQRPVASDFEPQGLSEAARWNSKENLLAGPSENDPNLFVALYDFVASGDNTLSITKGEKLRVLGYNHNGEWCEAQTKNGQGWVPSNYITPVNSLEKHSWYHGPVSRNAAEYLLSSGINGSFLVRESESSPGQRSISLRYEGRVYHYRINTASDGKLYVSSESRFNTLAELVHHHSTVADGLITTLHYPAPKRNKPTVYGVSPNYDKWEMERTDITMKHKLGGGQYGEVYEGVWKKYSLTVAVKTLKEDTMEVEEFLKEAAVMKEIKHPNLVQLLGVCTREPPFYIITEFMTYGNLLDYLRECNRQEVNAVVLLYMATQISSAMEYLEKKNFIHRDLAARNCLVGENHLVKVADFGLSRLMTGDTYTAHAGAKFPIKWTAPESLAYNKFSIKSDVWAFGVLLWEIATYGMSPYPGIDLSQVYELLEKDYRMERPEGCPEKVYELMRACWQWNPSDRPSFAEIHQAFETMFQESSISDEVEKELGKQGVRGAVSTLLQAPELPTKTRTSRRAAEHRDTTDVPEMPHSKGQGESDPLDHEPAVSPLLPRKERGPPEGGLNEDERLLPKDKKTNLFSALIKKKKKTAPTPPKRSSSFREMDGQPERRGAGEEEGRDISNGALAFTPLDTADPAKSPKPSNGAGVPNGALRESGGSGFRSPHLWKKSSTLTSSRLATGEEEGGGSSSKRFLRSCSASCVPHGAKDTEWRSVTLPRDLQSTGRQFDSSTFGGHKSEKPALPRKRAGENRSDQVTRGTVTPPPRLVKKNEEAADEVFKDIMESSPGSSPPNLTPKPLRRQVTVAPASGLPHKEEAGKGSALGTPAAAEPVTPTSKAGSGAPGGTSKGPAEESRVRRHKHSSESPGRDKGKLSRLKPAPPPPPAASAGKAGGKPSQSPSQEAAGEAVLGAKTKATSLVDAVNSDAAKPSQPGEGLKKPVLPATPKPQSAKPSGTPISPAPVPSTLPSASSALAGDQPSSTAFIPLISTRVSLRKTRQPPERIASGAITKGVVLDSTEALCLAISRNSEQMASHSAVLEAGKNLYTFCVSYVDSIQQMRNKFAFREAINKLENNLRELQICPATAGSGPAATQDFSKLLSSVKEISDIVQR
UniProt P31749: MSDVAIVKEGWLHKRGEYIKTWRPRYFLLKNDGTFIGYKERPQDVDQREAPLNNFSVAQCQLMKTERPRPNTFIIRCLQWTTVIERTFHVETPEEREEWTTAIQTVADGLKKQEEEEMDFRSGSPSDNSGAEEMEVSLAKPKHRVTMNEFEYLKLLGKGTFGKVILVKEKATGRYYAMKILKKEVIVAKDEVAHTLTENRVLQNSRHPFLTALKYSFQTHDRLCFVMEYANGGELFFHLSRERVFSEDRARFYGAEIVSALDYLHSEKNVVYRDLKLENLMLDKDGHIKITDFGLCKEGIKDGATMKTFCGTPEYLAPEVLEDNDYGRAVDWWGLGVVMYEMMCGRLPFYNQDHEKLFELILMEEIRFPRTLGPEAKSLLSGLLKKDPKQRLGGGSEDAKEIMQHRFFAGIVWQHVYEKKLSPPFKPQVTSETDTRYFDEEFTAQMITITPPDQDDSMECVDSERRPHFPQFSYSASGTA

Tests used:
Conditions in all cases: K562; 2-18 h
STK38 = STK38 (UniProt Q15208); assay: kinase-Nluc reporter destabilization hit call (1 = scored as downregulated) (binary); higher = compound decreases kinase abundance
SYK = SYK (UniProt P43405); assay: as above
TEC = TEC (UniProt P42680); assay: as above
TYK2 = TYK2 (UniProt P29597); assay: as above
ULK3 = ULK3 (UniProt Q6PHR2); assay: as above
YES1 = YES1 (UniProt P07947); assay: as above
ZAK = ZAK (UniProt Q9NYL2); assay: as above
ZAP70 = ZAP70 (UniProt P43403); assay: as above
ABL1 = ABL1 (UniProt P00519); assay: number of time points (of 5) at which kinase-Nluc abundance scored as decreased, DMSO-normalised (count); higher = more persistent destabilization
AKT1 = AKT1 (UniProt P31749); assay: as above

Compound	kinase-Nluc reporter destabilization hit call (STK38)	kinase-Nluc reporter destabilization hit call (SYK)	kinase-Nluc reporter destabilization hit call (TEC)	kinase-Nluc reporter destabilization hit call (TYK2)	kinase-Nluc reporter destabilization hit call (ULK3)	kinase-Nluc reporter destabilization hit call (YES1)	kinase-Nluc reporter destabilization hit call (ZAK)	kinase-Nluc reporter destabilization hit call (ZAP70)	number of time points (ABL1)	number of time points (AKT1)
Cc1ccc(C(=O)Nc2ccc(Oc3cc4cnn(C)c4cc3-c3cn[nH]c3)c(F)c2)c(=O)n1-c1ccc(F)cc1 [Merestinib] (2.5 µM)	inactive: 0	inactive: 0	inactive: 0	inactive: 0	inactive: 0	inactive: 0	inactive: 0	inactive: 0	0	0
c1cc(-c2c[nH]c3nccc(N4CCC[C@@]5(CCCCN5)C4)c23)ncn1 (10 µM)	inactive: 0	inactive: 0	inactive: 0	inactive: 0	inactive: 0	inactive: 0	inactive: 0	inactive: 0	0	0
COc1cc(Nc2ncc(F)c(Nc3ccc4c(n3)NC(=O)C(C)(C)O4)n2)cc(OC)c1OC (10 µM)	inactive: 0		inactive: 0	inactive: 0	inactive: 0	inactive: 0	inactive: 0	inactive: 0	0	0
CC#CC(=O)N1CC[C@@H](n2c(=O)n(-c3ccc(Oc4ccccc4)cc3)c3c(N)ncnc32)C1 [Tirabrutinib] (10 µM)	inactive: 0	inactive: 0	inactive: 0	inactive: 0	inactive: 0	inactive: 0	inactive: 0	inactive: 0	0	0
CCc1cc2c(cc1N1CCC(N3CCOCC3)CC1)C(C)(C)c1[nH]c3cc(C#N)ccc3c1C2=O [Alectinib (Hydrochloride)] (2 µM)	inactive: 0	inactive: 0	inactive: 0	inactive: 0	inactive: 0	inactive: 0	inactive: 0	inactive: 0	0	0
Cc1cc(O)c2c(c1)C(=O)c1cc(O)cc(O)c1C2=O [Emodin] (10 µM)	inactive: 0	inactive: 0	inactive: 0	inactive: 0	inactive: 0	inactive: 0	inactive: 0	inactive: 0	0	0
Cn1cc(-c2cnn3c(N)c(Br)c([C@@H]4CCCNC4)nc23)cn1 (2.5 µM)	inactive: 0	inactive: 0	inactive: 0	inactive: 0	inactive: 0	inactive: 0	inactive: 0	inactive: 0	2	0
Cc1[nH]c(/C=C2\C(=O)Nc3ccc(F)cc32)c(C)c1C(=O)N[C@H]1CCN(C(=O)N(C)C)C1 [Vorolanib] (10 µM)	inactive: 0	inactive: 0	inactive: 0	inactive: 0	inactive: 0	inactive: 0	inactive: 0	inactive: 0	0	0
O=C(N/N=C/c1coc2ccccc2c1=O)c1cccnc1 (10 µM)	inactive: 0	inactive: 0	inactive: 0	inactive: 0	inactive: 0	inactive: 0	inactive: 0	inactive: 0	0	0
C=CC(=O)Nc1ccc(CN2C(=O)N(c3cc(OC)cc(OC)c3)Cc3cnc(Nc4ccc(N5CCN(C)CC5)cc4)nc32)cc1 (2.5 µM)	inactive: 0	inactive: 0	inactive: 0	inactive: 0	inactive: 0	inactive: 0	inactive: 0	inactive: 0	0	0
COc1cc(Nc2ncc(F)c(Nc3ccc4c(n3)NC(=O)C(C)(C)O4)n2)cc(OC)c1OC [R406 (free base)] (10 µM)	inactive: 0		inactive: 0	inactive: 0	inactive: 0	inactive: 0	inactive: 0	inactive: 0	0	0
FC(F)(c1ccc2ncccc2c1)c1nnc2ccc(-c3ccncc3)nn12 (10 µM)	inactive: 0	inactive: 0	inactive: 0	inactive: 0	inactive: 0	inactive: 0	inactive: 0	inactive: 0	0	0
COc1cc(Nc2ncc(F)c(Nc3ccc4c(n3)N(COP(=O)(O)O)C(=O)C(C)(C)O4)n2)cc(OC)c1OC [Fostamatinib (disodium hexahydrate)] (10 µM)	inactive: 0	inactive: 0	inactive: 0	inactive: 0	inactive: 0	inactive: 0	inactive: 0	inactive: 0	0	0
C[C@@H](c1ccc(F)cc1)n1nnc2cnc3ccc(-c4ccc5ocnc5c4)cc3c21 (10 µM)	inactive: 0	inactive: 0	inactive: 0	inactive: 0	inactive: 0	inactive: 0	inactive: 0	inactive: 0	0	0
C[C@@H]1CCN(C(=O)CC#N)C[C@@H]1N(C)c1ncnc2[nH]ccc12 [Tofacitinib (citrate)] (10 µM)	inactive: 0		inactive: 0	inactive: 0	inactive: 0	inactive: 0	inactive: 0	inactive: 0	0	0
CCN1CCN(Cc2ccc(Nc3ncc(F)c(-c4cc(F)c5nc(C)n(C(C)C)c5c4)n3)nc2)CC1 [Abemaciclib] (2 µM)		inactive: 0	inactive: 0		inactive: 0	inactive: 0	inactive: 0	inactive: 0	0	0
O=C(Nc1cn[nH]c1-c1ccccn1)c1nn(C2CCNCC2)cc1Cl (10 µM)	inactive: 0	inactive: 0	inactive: 0	inactive: 0	inactive: 0	inactive: 0	inactive: 0	inactive: 0	1	0

Two entries drawn at random from the list so far, as already listed:
Compound	kinase-Nluc reporter destabilization hit call (STK38)	kinase-Nluc reporter destabilization hit call (SYK)	kinase-Nluc reporter destabilization hit call (TEC)	kinase-Nluc reporter destabilization hit call (TYK2)	kinase-Nluc reporter destabilization hit call (ULK3)	kinase-Nluc reporter destabilization hit call (YES1)	kinase-Nluc reporter destabilization hit call (ZAK)	kinase-Nluc reporter destabilization hit call (ZAP70)	number of time points (ABL1)	number of time points (AKT1)
Cn1cc(-c2cnn3c(N)c(Br)c([C@@H]4CCCNC4)nc23)cn1 (2.5 µM)	inactive: 0	inactive: 0	inactive: 0	inactive: 0	inactive: 0	inactive: 0	inactive: 0	inactive: 0	2	0
COc1cc(Nc2ncc(F)c(Nc3ccc4c(n3)NC(=O)C(C)(C)O4)n2)cc(OC)c1OC (10 µM)	inactive: 0		inactive: 0	inactive: 0	inactive: 0	inactive: 0	inactive: 0	inactive: 0	0	0
